Results deposited as PubChem BioAssay AID1259267 (Sanger Institute, 2017).

- Assay: 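Kinase and colorectal-mutated gene knock-downs lethal to GP5D cells alone or with drugs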 (primary screen)
- System: human GP5D colorectal cancer cells
- Reagent: siRNA pool against human genes
- Challenge: anchor drugs at low dose: BYL719 1 µM, cetuximab 5 µg/ml, trametinib 10 nM, or DMSO vehicle
- Measurement: 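Viability against non-targeting pool, replicate mean: robust z-score for knock-down alone, fraction with DMSO, synergy with BYL719 1 µM, cetuximab 5 µg/ml, trametinib 10 nM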
- Direction: robust z-score, knock-down alone and viability with DMSO: higher = more viable cells; synergy score with trametinib and synergy score with BYL719: higher = stronger synthetic lethal synergy with drug
- Rule for the call: 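Active (essential alone) if knock-down without drug gives robust z-score under -3; drug synergy does not count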
- Calls: active = essential alone; inactive = not essential
The deposit covers 794 reagents; below is an unselected part. In the full data, 9 (1.1%) are marked active. 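Viability capped at 1; calls reflect loss of viability from knock-down alone, not synergy with drugs.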 Further read-outs or replicates are left out here. The record does not give: the amount of reagent, the time to read-out.

| target | robust z-score, knock-down alone | viability with DMSO (fraction of control) | synergy score with trametinib | synergy score with BYL719 | outcome |
| --- | --- | --- | --- | --- | --- |
| CDK5 | 0.671 | 0.969 | -0.0533 | -0.144 | inactive |
| NRAS | 0.0639 | 0.84 | 0.259 | -0.225 | inactive |
| TCF12 | -0.415 | 0.739 | -0.0152 | -0.15 | inactive |
| RIPK2 | 0.279 | 0.886 | 0.0919 | 0.0298 | inactive |
| TSSK1B | 0.341 | 0.899 | -0.0791 | -0.253 | inactive |
| AK4 | -0.396 | 0.743 | -0.0501 | -0.375 | inactive |
| CILK1 | 0.817 | 1 | 0.0827 | 0.00206 | inactive |
| MAPK1 | 0.817 | 1 | 0.121 | 0.0414 | inactive |
| CTNNB1 | -0.288 | 0.766 | -0.317 | -0.168 | inactive |
| CERT1 | -0.167 | 0.791 | -0.0891 | -0.0261 | inactive |
| GALK1 | -0.846 | 0.648 | 0.187 | -0.119 | inactive |
| RPS6KB1 | 0.807 | 0.998 | 0.101 | 0.125 | inactive |
| TNNI3K | 0.817 | 1 | -0.067 | -0.0732 | inactive |
| PRKACB | 0.579 | 0.95 | 0.142 | 0.0269 | inactive |
| PHKA2 | 0.797 | 0.996 | -0.2 | -0.209 | inactive |
| CKM | 0.635 | 0.961 | 0.00277 | -0.385 | inactive |
| TSKS | 0.817 | 1 | -0.197 | -0.361 | inactive |
| TLK2 | 0.377 | 0.907 | -0.227 | -0.213 | inactive |
| RELA | -1.55 | 0.498 | 0.148 | -0.207 | inactive |
| DUSP21 | 0.817 | 1 | -0.164 | -0.338 | inactive |
| AKAP9 | 0.594 | 0.953 | -0.126 | -0.102 | inactive |
| BRD2 | -0.596 | 0.7 | -0.292 | -0.251 | inactive |
| GRK7 | 0.439 | 0.92 | -0.0188 | -0.0516 | inactive |
| MAST4 | 0.817 | 1 | -0.132 | -0.158 | inactive |
| NEK7 | 0.629 | 0.96 | -0.098 | -0.296 | inactive |
| SMAD2 | -1.86 | 0.432 | -0.197 | -0.287 | inactive |
| AK2 | 0.698 | 0.975 | 0.475 | -0.0352 | inactive |
| NUP107 | -2.77 | 0.24 | -0.147 | -0.291 | inactive |
| PTK2B | 0.387 | 0.909 | 0.367 | -0.104 | inactive |
| BRWD1 | -0.331 | 0.757 | 0.198 | -0.0604 | inactive |
| ULK3 | -0.596 | 0.701 | -0.0671 | -0.282 | inactive |
| DDR1 | -1.02 | 0.611 | 0.226 | -0.0812 | inactive |
| ADCK5 | 0.259 | 0.882 | -0.185 | -0.128 | inactive |
| HIPK2 | 0.73 | 0.981 | 0.11 | -0.0893 | inactive |
| MAPK10 | 0.817 | 1 | -0.197 | -0.243 | inactive |
| CUL1 | 0.817 | 1 | -0.197 | -0.166 | inactive |
| MAP3K6 | 0.817 | 1 | 0.177 | 0.0425 | inactive |
| RPS6KA6 | 0.817 | 1 | 0.238 | -0.02 | inactive |
| PFKFB4 | -0.433 | 0.735 | 0.114 | -0.13 | inactive |
| MAP4K4 | 0.751 | 0.986 | -0.0904 | -0.14 | inactive |
| PANK4 | -0.0458 | 0.817 | 0.125 | 0.195 | inactive |
| CALM1 | 0.562 | 0.946 | 0.0364 | -0.103 | inactive |
| AURKC | 0.209 | 0.871 | -0.152 | -0.1 | inactive |
| ADGRL2 | -0.429 | 0.736 | 0.12 | -0.26 | inactive |
| PIK3CD | 0.563 | 0.946 | -0.167 | -0.15 | inactive |
| RPS6KC1 | 0.817 | 1 | 0.236 | -0.115 | inactive |
| DGKH | 0.817 | 1 | 0.103 | 0.0623 | inactive |
| SHPK | -1.31 | 0.548 | -0.467 | -0.371 | inactive |
| CDK9 | 0.588 | 0.951 | -0.0649 | -0.276 | inactive |
| MARK1 | 0.188 | 0.867 | 0.219 | 0.175 | inactive |
| PSKH1 | 0.817 | 1 | 0.0752 | 0.0971 | inactive |
| IKBKG | 0.817 | 1 | 0.00823 | 0.0719 | inactive |
| DCLK1 | 0.817 | 1 | 0.0289 | -0.0395 | inactive |
| PIM2 | 0.328 | 0.896 | 0.358 | 0.0542 | inactive |
| AK1 | 0.379 | 0.907 | 0.161 | -0.0664 | inactive |
| NIM1K | 0.817 | 1 | -0.126 | -0.361 | inactive |
| TBX3 | 0.817 | 1 | -0.07 | -0.0825 | inactive |
| IPPK | -0.693 | 0.68 | -0.335 | -0.113 | inactive |
| CAMK1D | 0.817 | 1 | -0.14 | -0.251 | inactive |
| BLK | 0.817 | 1 | -0.0524 | -0.0885 | inactive |
| ACVR2A | -0.244 | 0.775 | -0.143 | -0.21 | inactive |
| MAP3K9 | -0.0729 | 0.811 | -0.193 | -0.31 | inactive |
| DGKQ | 0.215 | 0.872 | 0.238 | 0.00724 | inactive |
